# The list shows a part of the results, in another mix than the full data. At the low end of the ranking, values are background and their order means little.
# Tests used:
# Test in all cases: DAPPL (digital affinity profiling via proximity ligation, sequencing)
# Details in all cases: 10 mM Tris-HCl pH 7.5, 50 mM NaCl, 1 mM DTT, 4% glycerol, room temperature, 30 min; GST-TFs on glutathione beads, 16-mer random dsDNA library, 0.1% …; high values mean tight binding; double strand, one strand shown; scale: fold enrichment (6-mer frequency, TF over GST control)
# [1] = biological target: T1, ELK1 (UniProt P19419)
# T1 sequence: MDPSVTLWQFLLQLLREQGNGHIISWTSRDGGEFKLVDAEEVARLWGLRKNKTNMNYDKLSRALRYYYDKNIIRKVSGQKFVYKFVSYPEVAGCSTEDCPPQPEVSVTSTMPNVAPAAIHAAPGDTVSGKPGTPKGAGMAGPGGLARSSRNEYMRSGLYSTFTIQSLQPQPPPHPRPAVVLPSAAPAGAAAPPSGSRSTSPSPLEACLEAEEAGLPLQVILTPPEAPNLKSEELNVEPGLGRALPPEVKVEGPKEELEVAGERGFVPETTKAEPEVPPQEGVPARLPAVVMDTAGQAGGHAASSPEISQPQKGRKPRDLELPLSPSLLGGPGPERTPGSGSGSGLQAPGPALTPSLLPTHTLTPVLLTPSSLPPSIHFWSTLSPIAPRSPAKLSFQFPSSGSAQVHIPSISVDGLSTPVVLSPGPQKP
# [2] = biological target: T2, ELK3 (UniProt P41970)
# T2 sequence: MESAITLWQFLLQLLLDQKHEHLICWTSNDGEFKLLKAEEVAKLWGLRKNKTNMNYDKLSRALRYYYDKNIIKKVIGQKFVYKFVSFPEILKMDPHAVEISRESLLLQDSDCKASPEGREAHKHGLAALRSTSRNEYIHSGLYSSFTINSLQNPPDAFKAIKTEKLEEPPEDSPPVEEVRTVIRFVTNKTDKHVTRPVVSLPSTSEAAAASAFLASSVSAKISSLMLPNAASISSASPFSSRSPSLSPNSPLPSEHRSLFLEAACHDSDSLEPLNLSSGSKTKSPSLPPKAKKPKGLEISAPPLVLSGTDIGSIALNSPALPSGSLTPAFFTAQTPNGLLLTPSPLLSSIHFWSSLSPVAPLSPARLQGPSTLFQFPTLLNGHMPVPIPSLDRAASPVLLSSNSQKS
# [3] = biological target: T3, ETV3 (UniProt P41162-2)
# T3 sequence: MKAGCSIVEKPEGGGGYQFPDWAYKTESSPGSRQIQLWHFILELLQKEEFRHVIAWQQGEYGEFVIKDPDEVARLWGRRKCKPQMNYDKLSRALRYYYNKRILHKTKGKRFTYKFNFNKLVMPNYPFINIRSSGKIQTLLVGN
# [4] = biological target: T4, ETS2 (UniProt P15036)
# T4 sequence: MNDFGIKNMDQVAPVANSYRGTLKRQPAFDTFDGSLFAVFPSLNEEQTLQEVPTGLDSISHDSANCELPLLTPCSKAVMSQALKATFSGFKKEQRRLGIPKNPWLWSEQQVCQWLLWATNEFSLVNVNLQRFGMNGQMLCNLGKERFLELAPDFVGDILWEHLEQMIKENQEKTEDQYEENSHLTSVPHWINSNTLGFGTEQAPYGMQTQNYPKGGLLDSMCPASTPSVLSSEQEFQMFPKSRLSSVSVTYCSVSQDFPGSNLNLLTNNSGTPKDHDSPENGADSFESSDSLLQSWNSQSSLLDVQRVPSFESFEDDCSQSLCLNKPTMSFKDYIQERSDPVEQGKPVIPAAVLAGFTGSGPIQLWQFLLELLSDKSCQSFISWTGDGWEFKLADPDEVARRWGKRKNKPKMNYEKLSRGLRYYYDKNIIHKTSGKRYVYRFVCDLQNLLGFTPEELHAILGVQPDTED
Sequence,binding signal [1],binding signal [2],binding signal [3],binding signal [4]
TGTCAT,1.08,1.04,,
TGGATA,1.05,0.961,,
GCAACC,1.07,1.09,,
AAGGGT,1.01,0.952,,
TCCGGT,3.83,4.4,,
TGGACA,1.07,1.07,,
TTGCTG,1.13,1.33,,
GTGCTA,1.09,1.14,,
TCCTGT,1.72,1.88,,
CAATTC,1.27,1.2,,
TGGCGA,1.02,0.929,0.98,
CAATTA,1.11,1.05,,
GCTGCA,1.07,0.886,0.972,
TTTTGG,1.42,1.31,,
GTATGA,0.974,0.966,,
CTGTCT,1.3,1.62,,
TCAATC,1.08,0.977,,
CCCCTC,1.29,1.37,,
CGGCTG,0.947,0.73,,
TGAATA,1.11,1.06,,
CGGATG,1.66,1.6,,
CTTGCG,1.42,1.44,,
TCTATG,1.2,0.896,,
TCCACT,1.52,1.49,,
ATAGGG,,1.06,0.989,1.01
TCCGCT,,,2.44,2.32

Sequence,binding signal [1],binding signal [2],binding signal [3],binding signal [4]
ATGCTC,,1.27,1.35,1.42
CGCGAA,,,1.01,0.842
TGAATC,,0.956,1.01,0.998
CGCAAA,,,0.974,1.06
CTTACA,,,1.29,1.14
TGACCC,,1.4,1.39,1.38
TTCGCC,,,1.08,1.12
CTAGGC,,,1.09,1.01
CACCTC,,,1.15,1.06
ACATGA,,,0.955,0.98
TAGCGA,,,0.987,1.01
TGCCGG,,,1.21,1
CCCTCT,,,1.4,1.36
ATACGA,,,1.11,1.17
ATCTCA,,,1.13,1.14
AGTATA,,0.888,1,0.975
ACTGAC,,,1.21,1.32
TGAGCT,,,0.988,0.915
CTACAG,,1.08,0.952,0.966
TCCAGC,,,0.951,0.981
AAAGCC,,0.98,1.05,0.923
CATGGC,,,1.05,0.98
TACTAT,,,1.36,1.37
GGCACT,,,1.29,1.24
TTGCTC,,,1.2,1.33
GTTGTA,,0.876,1.01,1.03

Sequence,binding signal [1],binding signal [2],binding signal [3],binding signal [4]
CTCACC,,,1.14,1.11
CCTTCG,,1.65,1.12,1.3
ACCCCT,,,1.03,1.08
ATATAG,,1.23,1.19,1.11
GATCAC,,,0.928,0.914
TGACCG,,1.47,1.53,1.55
AAGCGG,,,1.15,1.13
CACCTA,,0.984,0.982,0.993
CGGCAT,,1.09,1.19,1.17
CGGTTT,,1.25,1.22,1.2
TGGATC,,,0.888,0.957
TGCATA,,1.15,1.11,1.17
CCCTTA,,1.25,,1.34
CGCAAC,,0.985,0.981,0.938
TCGTAT,,1.01,1.05,0.958
AGCTCT,,1.15,,1.16
TACGCG,,1.28,,1.14
ACACCA,,0.89,,0.976
TTTCCA,,1.31,1.45,1.38
TAGGTC,,1.08,,0.99
TTGCCC,,1.23,,1.43
CAGACT,,0.892,,0.99
CGCCAT,,0.952,,0.98
CTGTTC,,1.47,,1.44
CCCCGA,,0.946,,1.07
AGCTGA,,0.948,,1.04

# Two entries from above, reformatted:
Sequence	binding signal [1]	binding signal [2]	binding signal [3]	binding signal [4]
CCTTCG		1.65	1.12	1.3
ACCCCT			1.03	1.08

# At a glance, part of the list above.
Sequence,binding signal [1],binding signal [2],binding signal [3],binding signal [4]
GCTGCA,1.07,0.886,0.972,
TTTTGG,1.42,1.31,,
GTATGA,0.974,0.966,,

# The list goes on.

Sequence,binding signal [1],binding signal [2],binding signal [3],binding signal [4]
AAGTAG,,1.26,,1.31
TGGGTG,,0.976,1,1.07
AGTATG,,0.97,0.964,1.09
CACGTT,,1.25,,1.3
CGAATC,,0.923,0.944,0.957
ACAGCC,,0.976,1.04,1.03
TGGTGG,,1.22,0.983,1.08
ACGGCA,,1.01,1.06,1.09
TCCGCG,,1.14,,1.36
TGTTGA,,0.943,,1.11
GGGGCT,,0.979,0.905,0.969
ACTAGA,,0.951,0.96,0.921
TGCATG,,1.14,,1.06
GGTTAC,,1.04,,0.978
TATAAA,,1.26,,1.27
CATCGC,,1.23,,1.14
GTACGA,,0.967,0.971,0.993
GCAGCC,,0.956,,0.964
AGTGAC,,0.982,1.1,0.969
TAGCGT,,0.856,,0.99
CGCTGC,,1.16,,1.28
CTTGCT,,1.25,,1.21
AGTCCT,,1.01,,1.06
CAGATG,,0.964,,1.05
GACATG,,0.926,0.99,0.992

# Reference: PMC7862700
